Binding data for two substances are collected here from PMC5110553.

Amino acid sequences for entries named in this document (tags omitted).
UniProt P06733: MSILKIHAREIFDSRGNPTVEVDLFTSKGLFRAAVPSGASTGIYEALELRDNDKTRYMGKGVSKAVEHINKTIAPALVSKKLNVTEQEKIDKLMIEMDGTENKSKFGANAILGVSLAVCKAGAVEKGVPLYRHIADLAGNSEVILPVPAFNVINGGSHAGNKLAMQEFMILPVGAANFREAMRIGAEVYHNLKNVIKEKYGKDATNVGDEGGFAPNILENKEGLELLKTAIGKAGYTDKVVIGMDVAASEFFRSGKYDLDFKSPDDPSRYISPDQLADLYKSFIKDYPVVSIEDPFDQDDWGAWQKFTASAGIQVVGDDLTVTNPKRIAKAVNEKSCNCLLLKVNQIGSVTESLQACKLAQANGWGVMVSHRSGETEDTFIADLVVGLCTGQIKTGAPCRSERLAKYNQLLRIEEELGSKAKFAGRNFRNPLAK
UniProt Q2YLD2: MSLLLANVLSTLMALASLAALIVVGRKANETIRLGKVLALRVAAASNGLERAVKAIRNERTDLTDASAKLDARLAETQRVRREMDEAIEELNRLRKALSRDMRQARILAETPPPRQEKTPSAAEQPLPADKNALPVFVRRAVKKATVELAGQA

These are yes or no findings as the source states them, for the method shown. In cells and extracts the contact can be indirect. Some binding calls cover weakened binding; strength is not graded here.

Assay [1] concerns the target human alpha-enolase (ENO-1) (human) (UniProt P06733). As to the kind of experiment: co-IP.
The target of assay [2] is His_BPE123 (Brucella abortus 2308) (UniProt Q2YLD2). As to the kind of experiment: pull-down; only the target purified.

Regarding Myc_BPE123 (from UniProt Q2YLD2 1-153), the binding entry in assay [1] was “binds”.
With “human alpha-enolase (ENO-1) (from UniProt P06733 1-434) (enzyme)”, the binding entry in assay [2] is reported as “binds”.
